This is an account of results in PMC3675011.

Chains of the proteins cited; added tags and fusions are not shown. Lines headed by an entry give the natural chain unless they say otherwise; changes in a name come on top.
UniProt P0CG71: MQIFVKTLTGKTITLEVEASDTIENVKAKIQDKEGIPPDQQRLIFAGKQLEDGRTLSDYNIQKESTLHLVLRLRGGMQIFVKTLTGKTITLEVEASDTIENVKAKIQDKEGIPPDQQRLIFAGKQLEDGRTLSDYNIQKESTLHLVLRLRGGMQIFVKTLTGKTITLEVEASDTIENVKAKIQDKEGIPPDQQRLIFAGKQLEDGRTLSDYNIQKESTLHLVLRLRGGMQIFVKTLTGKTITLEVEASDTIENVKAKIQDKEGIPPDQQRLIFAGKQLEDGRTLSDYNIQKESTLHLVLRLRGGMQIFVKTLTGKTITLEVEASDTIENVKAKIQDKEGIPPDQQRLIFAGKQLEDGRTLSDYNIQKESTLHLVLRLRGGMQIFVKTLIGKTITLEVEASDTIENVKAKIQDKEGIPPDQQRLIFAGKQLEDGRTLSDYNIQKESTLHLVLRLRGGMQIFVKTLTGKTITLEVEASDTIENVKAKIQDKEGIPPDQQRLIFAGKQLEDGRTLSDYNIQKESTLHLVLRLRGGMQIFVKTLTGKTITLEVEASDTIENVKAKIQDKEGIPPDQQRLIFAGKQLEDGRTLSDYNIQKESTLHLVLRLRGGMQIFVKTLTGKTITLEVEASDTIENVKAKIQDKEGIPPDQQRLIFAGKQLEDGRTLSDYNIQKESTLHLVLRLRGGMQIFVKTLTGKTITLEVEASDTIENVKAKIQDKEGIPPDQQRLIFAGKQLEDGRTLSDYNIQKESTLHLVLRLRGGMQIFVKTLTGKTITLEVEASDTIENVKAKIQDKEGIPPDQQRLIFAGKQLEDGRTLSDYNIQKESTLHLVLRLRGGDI
UniProt Q10013: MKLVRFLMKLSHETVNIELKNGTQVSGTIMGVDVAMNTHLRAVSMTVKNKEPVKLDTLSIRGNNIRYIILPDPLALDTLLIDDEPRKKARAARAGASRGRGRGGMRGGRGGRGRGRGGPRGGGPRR
UniProt P09446: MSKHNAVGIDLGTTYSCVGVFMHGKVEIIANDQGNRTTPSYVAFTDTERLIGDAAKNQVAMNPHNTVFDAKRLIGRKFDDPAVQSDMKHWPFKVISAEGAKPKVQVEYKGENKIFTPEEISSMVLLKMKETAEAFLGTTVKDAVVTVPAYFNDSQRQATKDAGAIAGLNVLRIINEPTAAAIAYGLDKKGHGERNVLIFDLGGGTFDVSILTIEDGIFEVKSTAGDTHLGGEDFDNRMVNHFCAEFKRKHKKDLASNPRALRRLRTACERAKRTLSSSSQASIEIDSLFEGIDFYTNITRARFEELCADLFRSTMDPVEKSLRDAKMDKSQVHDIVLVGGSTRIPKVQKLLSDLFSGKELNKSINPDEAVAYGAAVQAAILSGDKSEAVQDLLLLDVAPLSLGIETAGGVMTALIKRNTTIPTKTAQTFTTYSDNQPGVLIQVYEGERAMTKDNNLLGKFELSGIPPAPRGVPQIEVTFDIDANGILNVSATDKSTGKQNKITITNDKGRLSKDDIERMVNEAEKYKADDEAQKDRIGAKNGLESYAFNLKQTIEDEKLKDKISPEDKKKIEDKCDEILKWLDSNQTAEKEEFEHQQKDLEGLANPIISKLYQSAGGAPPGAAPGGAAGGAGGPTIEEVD
UniProt P18334: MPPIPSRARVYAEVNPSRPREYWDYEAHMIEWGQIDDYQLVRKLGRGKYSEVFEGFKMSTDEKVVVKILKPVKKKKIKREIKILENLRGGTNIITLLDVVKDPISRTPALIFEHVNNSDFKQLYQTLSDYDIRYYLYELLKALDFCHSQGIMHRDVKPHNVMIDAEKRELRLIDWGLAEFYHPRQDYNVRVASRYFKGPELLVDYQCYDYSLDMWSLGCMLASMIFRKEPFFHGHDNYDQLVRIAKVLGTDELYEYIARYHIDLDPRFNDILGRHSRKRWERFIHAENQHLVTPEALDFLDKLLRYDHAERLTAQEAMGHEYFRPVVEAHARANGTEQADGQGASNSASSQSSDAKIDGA

These are yes or no findings as the source states them, for the method shown. In cells and extracts the contact can be indirect. A yes stands for co-enrichment or nearness to the bait. Other partners may have been found.

The chains are these.
T1: RSR-2, the Caenorhabditis elegans ortholog of human SRm300/SRRM2 (C. elegans (endogenous in N2 worms)) (UniProt Q9U213)
T1 sequence: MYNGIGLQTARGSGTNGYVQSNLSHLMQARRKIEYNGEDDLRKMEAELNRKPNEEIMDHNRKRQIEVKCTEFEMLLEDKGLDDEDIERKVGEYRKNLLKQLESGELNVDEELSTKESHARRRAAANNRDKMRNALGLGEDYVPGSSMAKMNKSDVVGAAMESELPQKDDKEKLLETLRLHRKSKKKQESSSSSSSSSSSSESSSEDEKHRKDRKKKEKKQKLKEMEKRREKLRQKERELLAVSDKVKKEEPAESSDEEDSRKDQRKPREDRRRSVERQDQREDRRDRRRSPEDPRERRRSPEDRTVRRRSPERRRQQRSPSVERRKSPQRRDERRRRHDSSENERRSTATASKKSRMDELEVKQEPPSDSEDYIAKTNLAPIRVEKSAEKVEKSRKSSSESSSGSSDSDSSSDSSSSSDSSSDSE

B1: Probable U2 small nuclear ribonucleoprotein A′ (mog-2) (protein, UniProt Q9BLB6 1-253)
chain: MVRLTTELFAERPQFVNSVNMREINLRGQKIPVIENMGVTRDQFDVIDLTDNDIRKLDNFPTFSRLNTLYLHNNRINYIAPDIATKLPNLKTLALTNNNICELGDIEPLAECKKLEYVTFIGNPITHKDNYRMYMIYKLPTVRVIDFNRVRLTEREAAKKMFKGKSGKKARDAIQKSVHTEDPSEIEPNENSSGGGARLTDEDREKIKEAIKNAKSLSEVNYLQSILASGKVPEKGWNRQMDQNGADGEAMES
B2: Small nuclear ribonucleoprotein Sm D3 (snr-1) (protein, UniProt Q17348 1-136)
chain: MTSVGVPIKILHEAEGHMVTLETVTGEVYRGKLSEAEDNMNCQLAETVVTFRDGRSHQLDNVFIRGNKIRFMILPDMLKNAPMFKNIGRAQKGAIGMGLGGLDQRGRGRGTAFRRPMGRGGPRGMSRPGGAPTFRG
B3: E3 ubiquitin-protein ligase siah-1 (siah-1) (protein, UniProt Q965X6 1-419)
chain: MSNRNGGGGGGDYQDVIESLRRTQLIFEEDDNNSSDSAPQANHLSRHQTSNSLVEDMVNHSNGNPPPVPPGITQQQCQIGLTPRMSASPPSAVSTISGTAVLGKTMARVQSNPPGSIPHNTTTTAQGIQSVAPHIPIGGGGATDDSSAEILSVFECPVCLEYMLPPYMQCSSGHLVCSNCRPKLQCCPTCRGPTPSVRNLGLEKIANTVRFPCKFSTSGCPLNFHHADKTEHEELCEFRPYCCPCPGASCKWQGGLSDVMEHLKKIHKSITTLQGEDIVFLATDINLPGAVDWVMMQSCFDYNFMLVLEKQEKYDPAQPTQMFYAVVQLIGSKKEADNFVYRLELSASRRRMSWEATPRSIHEGVVVAIQQSDCLAFDSNAAQLFAENGNLGINVTISRIDTPQRRHPNELENSDLEYD
B4: rRNA 2′-O-methyltransferase fibrillarin (fib-1) (protein, UniProt Q22053 1-352)
chain: MGRPEFNRGGGGGGFRGGRGGDRGGSRGGFGGGGRGGYGGGDRGSFGGGDRGGFRGGRGGGDRGGFRGGRGGGDRGGFGGRGSPRGGFGGRGSPRGGRGSPRGGRGGAGGMRGGKTVVVEPHRLGGVFIVKGKEDALATKNMVVGESVYGEKRVSVDDGAGSIEYRVWNPFRSKLAASIMGGLENTHIKPGTKLLYLGAASGTTVSHCSDVVGPEGIVYAVEFSHRSGRDLLGVAKKRPNVVPIVEDARHPHKYRMLVGMVDVIFSDVAQPDQARIVALNAQNFLRNGGHAVISIKANCIDSTAEPEAVFAGEVNKLKEEKFKPLEQVTLEPYERDHAVVVAVYRPVKGKKV
B5: Transcriptional cofactor T27F2.1 (skp-1) (protein, UniProt Q22836 1-535)
chain: MSMKLRDILPAPVAADEAASQIRRDPWFGGRDNEPSAALVSKEPPPYGKRTSFRPRGPEDFGDGGAFPEIHVAQFPLGLGLGDMRGKPENTLALQYGTDGKLQHDAIARIGHVKDKVVYSKLNDMKAKTWNEDDDDIQKPDDDAVIDATEKTRMALEKIVNSKVASALPVRHADKLAPAQYIRYTPSQQNGAAGSQQRIIRMVEEQKDPMEPPKFKINQKIPRAPPSPPAPVMHSPPRKMTAKDQNDWKIPPCISNWKNPKGFTVGLDKRLAADGRGLQQTHINENFAKLADALYIADRKAREEVETRAQLERRVAQNKKSEQEAKMAEAAAKARQERSAMRRKDDEDDEQVKVREEIRRDRLDDIRKERNIARSRPDKADKLRKERERDISEKIVLGLPDTNQKRTGEPQFDQRLFDKTQGLDSGAMDDDTYNPYDAAWRGGDSVQQHVYRPSKNLDNDVYGGDLDKIIEQKNRFVADKGFSGAEGSSRGSGPVQFEKDQDVFGLSSLFEHTKEKKRGGDGGDSRGESKRSRRD
B6: Nucleolar complex protein 2 homolog (pro-2) (protein, UniProt O17580 1-715)
chain: MKLLKKPAGLKKRKVISKRIKIEKKPSSEDEGSSDEEVPKLDGEGSLDGSEDEDDGTVTVEKGGVKKHKLDLEKLKQSDPEFFKFLQQEDADLLNMEDDGDDDEDDDEDDEDEEEEESDDDEDDEEDDDKTKIKKIRKPKIKSDNSGRLIVDSNVYSYLQQVLVLDDETSTPTNPSDVRMAVDVFVACVARVGADIEAPKYVINEQSIFEAVVRMCFQAMPDILKRLLKAKPEGDKVLFSKTAIKKYQTYVRTYLHAMIVFLNEVQTTEVLIATIKAMTRLVDLYAHFSRMSKLLIKAVVRIWSRKTLECRLPAFVCMNLLVKNYPQHFVPLYKTAYVAFVANSKIVTNETWPLLQFMHRTFAELTILNPEQAYKYAFVYIRQTAVHLRNAMISKGRKDLIFSIYNWQMMQCMYMWVRVIAKAHSVNGAEQIGELVYPLIQVIVGIFKLCNAPTFLPLRLHCCQLLIQLQASCTNYIPILQVSCDCLEELARELKSKPKPVKGAVKLPDIECTLKCSSQFSDLPQWRKVISEHVFRTMMQSAHLLASQAAFPDVVLPINHRISAILETMKNGDHAHLFRGFQTKLKEHSRFVLDVLARKSVDINDEMQVRAVRFDLNNPDSPIKTFYRQWEKVWKMKERSAVENSKKDDKKKKKEEEAAAAKKRKPNETVEDEDDVKPEVSKAKRKRIKIGAAAKKADASVPDQFADMSMWSDED
B7: Pre-mRNA-splicing factor CWC22 homolog (let-858) (protein, UniProt Q17336 1-897)
chain: MSSSRSQSPETPKAASEEREEEEKESSEQPDTPKTSSEKSASRSQSPRESREVSQETETSENQEKIKEKDDGDDQPGTPNSYRSRETSPAPKRSKETRESESPEKSPVRSRSPRRSSARSPSRSPRRRRERSSERKQSEEPAPLPEKKKKEPLDILRTRTGGAYIPPAKLRLMQQQISDKQSEQYQRMNWERMKKKIHGLVNRVNAKNLVQIVRELLQENVIRSKGLLCRDIIQAQAFSPGFSNVYAALAAVINSKFPHVGELLLRRLIVQFKRSFRRNDRGVTVNVIKFIAHLINQQVAHEVLALEIMILMLEEPTDDSVEVAIAFLKECGAKLLEIAPAALNSVYDRLRAILMETERSENALDRRIQYMIETAMQIRKDKFAAYPAVIEDLDLIEEEDQIIHTLNLEDAVDPENGLNVFKLDPEFEKNEEVYEEIRKEIIGNADISDEDGGDELDDEEEGSDVEEAPKKTTEIIDNTDQNLTAFRREVYLTMQSSLDYQEAAHKLLKMKIPDSMQNELCAMLVDCCAQQRTYERFYGMLIERFCRLRLEYQQYFEKLCQDTYSTIHRIDITKLRNLARLIAHLLSTDAIDWKILADMKMTEEDTTSSGRIYIKYIFNELVEAMGMVKLHSRVTDPTLAHCFVGLFPRTNPNSARFSINFFTMIGLGGLTLELREWLAKGLKKKKGMLDQLKAESSSDSSSSSDSSDSSDSSDSDDSSDSSSDSSSSSESEPEPPKKKKKKNSEESSKKKEKENIGRRDRGDKRAERHRDQSVENKDKDRRRRQDSDENRRPERGDDRKDRSKDRRRQDSDDEDRKGRERREDSGERRRGDRDRRDRNKDQEDHREDRRDRSKDREDRRDRRRHDSDDDRKTRRDRSEERGGRRREVESDDRRRRR
B8: Probable small nuclear ribonucleoprotein E (snr-6) (protein, UniProt Q9XTU6 1-90)
chain: MSTRKLNKVMVQPVNLIFRYLQNRTRVQIWLYEDVTHRLEGYIIGFDEFMNVVFDEAEEVNMKTKGRNKIGRILLKGDNITLIHAAQQEA
B9: Lysine-specific demethylase rbr-2 (rbr-2) (protein, UniProt Q23541 1-1477)
chain: MRARRQENSISTPSAPSTSTSPRKKASIGNSRSKNHGSKMEMYDQFYKKFVRPPMAPIYYPTEEEFSDPIEYVAKIRHEAEKFGVVKIVPPANFKPPFAIDKEAFTFRPRTQKLNEVEAIVKEKHTFIDRLINFNRYSGLTFEFPVDRDGNIVDLYRLHRIVQNFGGCEEVNEDEKWRDVAREYLPKEQMARGVPSAFINLIRSHYNLHIEPFNRNLKEKAMKNDDESDDEMEELKHKYQHHHGTMRTEIEVPNDKTTEGGEDECPVSMQSGRRRSKNKKASSSRKTLGTSSKKNSTRGRKNKKKAEGDDDDDEDPMDQVFCVACNEGKDEDLLLLCDIDGCNNGRHTYCCDPVLDEVPEGEWRCPKCIESEDAKIGLDWGFYDADTEYNLNSFTEFANKWKCDYFGVKDVSQVSCDAVERSFWKNVISHENPVSVKYGADLITSRVGSGFPRKEDKHTGPDLKLKQQYASHAWNLNNMPVLRESVLSHFNTGISGMMVPWVYVGMCFSTFCWHTEDHWTYSVNYNHFGERKIWYGVGGEDAEKFEDALKKIAPGLTGRQRDLFHHMTTAANPHLLRSLGVPIHSVHQNAGEFVITFPRAYHAGFNEGLNFAEAVNFAPIDWLSKGRECVESYSNVRRYLVFSHDELLFKMVEAMDKLGISMSLATHEELIRIYEKQKMLRELLARLGVSNRQMQQVMFEKIPDEQRSCRFCKTTLFMCALVCNKHKKMTCVEHHDHLCNSCTTKDYRYQYRFELDQLNNMCDELGKRTVNYNGWKEESDEMLEEEGKPKLERIEEFIDSAKQNKYPQTDQVHKLITIRHTAKSAIEKANQLLFKKVRTRTKTRCQRADTRTDTEGVRSLIEQMQAMDCNLTVIIDKLEKWMEQVEMWRNRAKDAIYREQEYSKEEIEKIIEEGDEYDIKLEEIDELRKVIQMKDWSDRARKVTTWKATPDMEKDIDFEYKLRYASSDILSLIRDSPRNPTDGTSKLVFELQQMLRDANTLEVIANNFCENPALDQLQSIWQSLRETDWFYEKYINMVRYEIIHVAKIKSMIDAAIPVLSEFDLKTQLQKIVNVEITLSKAAEISKAFETSKCLNGSEEHLGILDMISTMNAFTQRIAILFKPNNAYHNLFEILSERDDLTPLAEGQTIPLYFQGGAVHPSDEWHQMKEFESLDQIVHHQSSLREMQMRIFEKVKQANSARGLEACSCLGFNKSDDSESTLTCIMCDSEFHVRCCEWSPFLEKLPEGCFLCVRCLRGQRPVIDDVTTALNGTPSGCLETHLVRNLIQKTRGITQNLMEAANKRKSGESSDDICKIALFDWLSCEILNPNGLPKARELISEFYMEYLQKQSSAALELKNRPVRSKPSVSLFDPKITAKRKRPSVSHKETSKKSRKRQSQASPSEYYEDESEFKSCQARACLKPYGDSVNWVMCEAGCKNWFHVICLGFTLREINDMHEYRCSSCLDHADSPTSSVSTD

In the first experiment the target is T1, RSR-2, the Caenorhabditis elegans ortholog of human SRm300/SRRM2 (C. elegans (endogenous in N2 worms)). The experiment in a line: affinity purification with mass spectrometry; RSR-2-containing complexes immunopurified with anti-RSR-2 antibody from two biological replicates of wild type mixed-stage worms; eluate precipitated with acetone, digested with trypsin (MudPIT), LC-MS/MS; control unspecific rabbit IgG.
Turning to B1, the binding entry is recorded as “binds”.

As to B2, the binding result is listed as “binds”.

With B3, the binding entry is reported as “binds”.

Take B4: the binding result is recorded as “binds”.

For the molecule B5, the binding entry is reported as “binds”.

B6: the binding result is “binds”.

For B7, the binding result is reported as “binds”.

With B8, the binding entry is given as “binds”.

For B9, the binding entry is reported as “binds”.

The target is the same in another experiment. Described as above. This is another data set of the same source.
Regarding “Polyubiquitin-A (ubq-1) (from UniProt P0CG71)”, the binding entry is on record as “binds”.

On to “Probable small nuclear ribonucleoprotein Sm D1 (snr-3) (from UniProt Q10013 1-126)”, for which the binding entry was “binds”.

“Heat shock 70 kDa protein A (hsp-1) (from UniProt P09446 1-640)”: the binding result is “binds”.

With “Casein kinase II subunit alpha (kin-3) (from UniProt P18334 1-360)”, the binding entry was “binds”.
